Results taken from publication PMC6751249.
These are yes or no findings as the source states them, for the method shown. In cells and extracts the contact can be indirect. Some results given as binding are weak or reduced against the parent protein; the word gives no strength.

The chains behind the UniProt entries cited, without tags or fusion partners. Residues count along the entry.
UniProt P11021, residues 19-654: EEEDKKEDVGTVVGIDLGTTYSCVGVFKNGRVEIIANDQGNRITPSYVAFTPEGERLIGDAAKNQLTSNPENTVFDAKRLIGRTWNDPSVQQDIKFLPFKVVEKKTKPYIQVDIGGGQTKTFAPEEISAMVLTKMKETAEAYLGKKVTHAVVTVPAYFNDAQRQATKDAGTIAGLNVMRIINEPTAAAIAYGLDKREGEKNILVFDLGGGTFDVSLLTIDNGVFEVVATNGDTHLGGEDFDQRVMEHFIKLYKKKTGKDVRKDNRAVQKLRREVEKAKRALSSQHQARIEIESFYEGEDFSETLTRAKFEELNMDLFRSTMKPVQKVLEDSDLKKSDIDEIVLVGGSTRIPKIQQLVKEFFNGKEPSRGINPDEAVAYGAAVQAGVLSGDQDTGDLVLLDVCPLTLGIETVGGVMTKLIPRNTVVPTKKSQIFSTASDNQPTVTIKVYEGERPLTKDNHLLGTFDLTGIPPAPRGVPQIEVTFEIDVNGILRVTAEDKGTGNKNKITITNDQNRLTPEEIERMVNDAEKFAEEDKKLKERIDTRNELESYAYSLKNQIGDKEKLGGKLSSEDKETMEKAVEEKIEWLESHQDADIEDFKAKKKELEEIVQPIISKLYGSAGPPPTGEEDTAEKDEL

Target: T1, Dentin matrix protein 1 (human (endogenous in hPDLSCs)) (UniProt Q13316)
T1 sequence: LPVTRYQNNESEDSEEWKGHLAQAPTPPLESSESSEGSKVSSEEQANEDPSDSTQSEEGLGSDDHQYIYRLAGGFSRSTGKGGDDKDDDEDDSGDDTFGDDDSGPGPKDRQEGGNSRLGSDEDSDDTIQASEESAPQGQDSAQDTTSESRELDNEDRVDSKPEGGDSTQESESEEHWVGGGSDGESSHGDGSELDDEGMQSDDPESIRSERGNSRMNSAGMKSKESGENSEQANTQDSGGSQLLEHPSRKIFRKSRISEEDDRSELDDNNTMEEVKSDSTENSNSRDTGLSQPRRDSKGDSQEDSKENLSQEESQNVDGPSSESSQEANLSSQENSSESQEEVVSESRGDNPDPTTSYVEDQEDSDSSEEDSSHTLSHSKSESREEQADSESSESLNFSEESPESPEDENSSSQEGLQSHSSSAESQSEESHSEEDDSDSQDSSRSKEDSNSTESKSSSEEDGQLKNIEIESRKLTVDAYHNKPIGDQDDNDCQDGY
Test: co-IP; membrane fraction (Mem-PER kit) of hPDLSCs overexpressing GRP78; anti-DMP1 (in house) or control IgG, 10 ug, on Protein A/G magnetic beads, overnight at 4 °C; Western blot probed with anti-GRP78 (1:1000)

binding: binds
Substance: Glucose regulated protein-78 (from UniProt P11021 19-654)
